Source: PMC8493742
No constants are given. Whether binding was seen depends on the method and setting. In cells and extracts the contact can be indirect.

Chains of the proteins cited; added tags and fusions are not shown.
UniProt Q13887: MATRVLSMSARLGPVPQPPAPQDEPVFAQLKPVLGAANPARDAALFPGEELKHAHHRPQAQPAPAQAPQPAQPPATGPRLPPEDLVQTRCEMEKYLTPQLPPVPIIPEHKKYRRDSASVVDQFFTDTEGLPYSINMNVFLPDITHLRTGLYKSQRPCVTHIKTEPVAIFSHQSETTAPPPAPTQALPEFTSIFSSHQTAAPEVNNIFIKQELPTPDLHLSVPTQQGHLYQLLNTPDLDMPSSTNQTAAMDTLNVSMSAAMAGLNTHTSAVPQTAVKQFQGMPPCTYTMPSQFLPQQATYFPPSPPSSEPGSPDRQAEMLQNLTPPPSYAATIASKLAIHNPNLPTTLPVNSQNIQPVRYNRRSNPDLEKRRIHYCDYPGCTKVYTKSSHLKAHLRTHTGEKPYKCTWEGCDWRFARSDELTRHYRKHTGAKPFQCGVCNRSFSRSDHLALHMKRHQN
UniProt P06748: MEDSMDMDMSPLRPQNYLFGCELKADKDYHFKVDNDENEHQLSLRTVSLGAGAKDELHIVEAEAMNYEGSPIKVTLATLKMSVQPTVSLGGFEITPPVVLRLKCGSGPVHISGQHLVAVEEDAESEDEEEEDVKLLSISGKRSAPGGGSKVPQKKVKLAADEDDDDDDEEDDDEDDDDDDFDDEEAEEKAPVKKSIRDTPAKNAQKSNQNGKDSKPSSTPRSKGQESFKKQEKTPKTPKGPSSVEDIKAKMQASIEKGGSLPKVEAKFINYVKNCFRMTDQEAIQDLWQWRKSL

Columns and labels:
[1] = target: Kruppel-like factor 5 (KLF5) (human (endogenous in OCI-AML3)) (UniProt Q13887); assay: co-IP; endogenous proteins in sonicated cell lysates in IP buffer (20 mM Tris-Cl, 150 mM NaCl, 1 mM EDTA, 1 mM EGTA, 1% Triton X-100, pH 7.5); specific antibodies or normal IgG with protein A/G beads overnight at 4 °C; western blot; also in cells with shNPM1, shHOTAIRM1 or HOTAIRM1 overexpression
[2] = target: WW Domain-Containing Protein 1 (WWP1) (human (endogenous in OCI-AML3)) (UniProt Q9H0M0); assay: as above

With “wild-type nucleophosmin (NPM1-wt) (from UniProt P06748 1-294)” the binding [1] was “no binding” and the binding [2] was “no binding”.
